This data set can be described thus: In vivo engraftment of adoptively transferred Vγ9Vδ2 T cells in NSG, NSG-IL15 and NOG-IL15 mice (Example 4). Set-up: species or system mouse. As to conditions: with 20×10^6 non-enriched Vγ9Vδ2 T cells, IL-2 25 × 10^4 IU/kg ip, Zol 2.5 mg/kg iv.

One substance from patent publication US20260137780A1, “MATERIALS AND METHODS FOR IMPROVED EXPANSION AND USES OF IMMUNE CELLS” (Janssen Biotech, Inc., priority 2021, published 2026) can be followed below.

On to IL-2: IL-2 (ProleukinR), for which the “effect of treatment on total Vγ9Vδ2 T cell counts” value is on record as “negative effect”. In addition, under “days 0, 7, 14, 21, 28”, the “effect of treatment on Vγ9Vδ2 T cell engraftment or persistence” value was “did not improve engraftment or persistence”.
